Experimental data: PubChem BioAssay AID1259254 (NCATS, 2017)

- Screen: 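Genome-wide screen for genes that prevent DNA re-replication in cancer cells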 (primary screen)
- Cell system: human HCT116 colorectal cancer cells
- Reagents: single siRNA against human genes
- Duration: 3 days
- Measured: 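Imaged Hoechst DNA stain sorts each cell into a cycle phase by DNA amount; per plate, G2 fraction set to 0% for non-targeting and 100% for GMNN siRNA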
- Scale: G2 robust z-score and G2 cells, % of GMNN control: higher = more G2 cells, more excess DNA replication; raw share of cells in G2: higher = larger share of cells with G2 DNA content
- Call rule: 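Active siRNAs have a G2 robust z of 5 or more median absolute deviations over the median, which in these data means about 38% or higher of GMNN control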
The deposit covers about 59,000 reagents; this is an unselected part. In the full data, about 1,550 (2.6%) were called active. 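G2 share is only a proxy for re-replication; each gene was hit by three separate siRNAs, and active genes were retested.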 Raw values are not corrected between plates. Reagents against one gene are numbered here. Not stated in the record: the amount of reagent.

| Target gene | reagent no. | G2 robust z-score | G2 cells, % of GMNN control | raw share of cells in G2 (%) | activity call |
| --- | --- | --- | --- | --- | --- |
| COL16A1 | 1 | -0.756 | -2.35 | 2.53 | inactive |
| COL16A1 | 2 | 4.43 | 34.2 | 20.8 | inactive |
| COL16A1 | 3 | -0.793 | -2.61 | 2.16 | inactive |
| F13B | 1 | -0.813 | -2.75 | 4.01 | inactive |
| F13B | 2 | -0.7 | -1.96 | 3.37 | inactive |
| F13B | 3 | 1.32 | 12.3 | 8.33 | inactive |
| PDE5A | 1 | -0.923 | -3.53 | 3.44 | inactive |
| PDE5A | 2 | -0.972 | -3.87 | 3.9 | inactive |
| PDE5A | 3 | -0.0645 | 2.51 | 5.68 | inactive |
| LARP1BP3 | 1 | -0.527 | -0.738 | 3.36 | inactive |
| LARP1BP3 | 2 | 0.238 | 4.64 | 4.94 | inactive |
| LARP1BP3 | 3 | -0.152 | 1.9 | 3.7 | inactive |
| ARHGEF6 | 1 | -0.411 | 0.0724 | 3.22 | inactive |
| ARHGEF6 | 2 | 1.2 | 11.4 | 9.52 | inactive |
| ARHGEF6 | 3 | -0.746 | -2.28 | 3.82 | inactive |

The list goes on, starting with the last 2 of the part before.
| Target gene | reagent no. | G2 robust z-score | G2 cells, % of GMNN control | raw share of cells in G2 (%) | activity call |
| --- | --- | --- | --- | --- | --- |
| ARHGEF6 | 2 | 1.2 | 11.4 | 9.52 | inactive |
| ARHGEF6 | 3 | -0.746 | -2.28 | 3.82 | inactive |
| GLB1 | 1 | -1.02 | -4.22 | 2.15 | inactive |
| GLB1 | 2 | 4.09 | 31.7 | 16.8 | inactive |
| GLB1 | 3 | -0.486 | -0.449 | 5.09 | inactive |
| RAP2A | 1 | -0.123 | 2.1 | 4.84 | inactive |
| RAP2A | 2 | 0.436 | 6.04 | 7.06 | inactive |
| RAP2A | 3 | 0.116 | 3.79 | 6.12 | inactive |
| USP2 | 1 | 0.956 | 9.69 | 8.94 | inactive |
| USP2 | 2 | -0.596 | -1.22 | 4.47 | inactive |
| USP2 | 3 | 0.0517 | 3.33 | 5.15 | inactive |
| PCDH1 | 1 | 1.06 | 10.4 | 8.99 | inactive |
| PCDH1 | 2 | -0.624 | -1.42 | 2.71 | inactive |
| PCDH1 | 3 | -0.547 | -0.878 | 4.87 | inactive |
| FCER2 | 1 | 11 | 80.3 | 34.4 | active |
| FCER2 | 2 | 4.65 | 35.7 | 18.8 | inactive |
| FCER2 | 3 | 0.619 | 7.32 | 6.27 | inactive |
